Reference: patent US7696233B2, “Method for controlling particular insect pests by applying anthranilamide compounds” (E. I. du Pont de Nemours and Company, priority 2001, dated 2010)
Some results were stated once for a whole list of compounds, not compound by compound.

Assays:
Type in all cases: in vivo
[1] = test system: fall armyworm (Spodoptera frugiperda); test: Test A: control of fall armyworm, foliar spray on corn; details: sprayed at 50 ppm, visually assessed after 6 days
[2] = test system: fall armyworm (Spodoptera frugiperda); test: Test K: soil systemic control of fall armyworm, corn; details: 1 mL test solution to soil; plant matter excised after 6 days; mortality after four days; probit analysis
[3] = test system: tobacco budworm (Heliothis virescens); test: Test B: control of tobacco budworm, foliar spray on cotton; details: sprayed at 50 ppm, visually rated after 6 days
[4] = test system: beet armyworm (Spodoptera exigua); test: Test C: control of beet armyworm, foliar spray on corn; details: sprayed at 50 ppm, visually rated after 6 days
[5] = test system: tobacco budworm (Heliothis virescens); test: Test I: soil systemic control of tobacco budworm, cotton; details: 10 ppm, 10 mL to pots weekly for four weeks; rated five days after last infestation
Procedure: For evaluating soil systemic control of tobacco budworm (Heliothis virescens), cotton plants were grown in sassafras soil in 15-cm pots in aluminum trays. When the plants reached square stage (bud formation on the plant) the plants were treated with the test compounds.
Test compounds were formulated in 0.25 mL of acetone and then diluted with water to provide solutions of 10 ppm. Ten mL of the treatment solutions was added to the pots weekly for four weeks, with four replicates of each treatment rate. One day after the second, third and fourth treatments, 35-50 first instar Heliothis virescens larvae were brushed on each plant with paintbrushes and placed on the terminal area, squares, and bolls. Five days after the last infestation with larvae the plants were rated for damage.

[6] = test system: tobacco budworm (Heliothis virescens); test: Test J: alternative protocol, soil systemic control of tobacco budworm, excised cotton leaves; details: 3 mg of compound to soil surface per pot; upper leaves excised at 4 days after treatment
[7] = test system: boll weevil (Anthonomus g. grandis); test: Test M: control of boll weevil, sprayed cotton plants; details: sprayed at 50 ppm, three days after infestation

SMILES | feeding damage (excellent levels of plant protection) [1] | LC90 (concentration giving 90% kill of the larvae) [2] | feeding damage (excellent levels of plant protection) [3] | feeding damage (excellent levels of plant protection) [4] | feeding damage (excellent levels of plant protection) [5] | mortality [6] | feeding damage (excellent levels of plant protection) [7]
CNC(=O)c1cccc(C)c1NC(=O)c1cc(C(F)(F)F)nn1-c1ncccc1Cl [Compound 200] | ≤ 10% | ≤ 10 ppm | ≤ 10% | – | – | – | –
C#CCNC(=O)c1cccc(C)c1NC(=O)c1cc(C(F)(F)F)nn1-c1ncccc1Cl [Compound 202] | ≤ 10% | ≤ 10 ppm | ≤ 10% | ≤ 10% | – | – | –
Cc1cccc(C(=O)NC(C)C)c1NC(=O)c1cc(C(F)(F)F)nn1-c1ncccc1Cl [Compound 214] | ≤ 10% | – | ≤ 10% | ≤ 10% | ≤ 10% | – | –
Cc1cccc(C(=O)NC(C)C)c1NC(=O)c1cc(Br)nn1-c1ncccc1Cl [Compound 283] | ≤ 10% | – | ≤ 10% | ≤ 10% | ≤ 10% | – | –
Cc1cccc(C(=O)NC(C)C)c1NC(=O)c1cc(Cl)nn1-c1ncccc1Cl [Compound 313] | ≤ 10% | ≤ 10 ppm | ≤ 10% | ≤ 10% | – | – | –
Cc1cc(Br)cc(C(=O)NC(C)C)c1NC(=O)c1cc(C(F)(F)F)nn1-c1ncccc1Cl [Compound 494] | ≤ 10% | ≤ 10 ppm | ≤ 10% | ≤ 10% | – | – | –
Cc1cc(Cl)cc(C(=O)NC(C)C)c1NC(=O)c1cc(C(F)(F)F)nn1-c1ncccc1Cl [Compound 497] | ≤ 10% | ≤ 10 ppm | ≤ 10% | ≤ 10% | – | greater than 70% | –
CNC(=O)c1cc(Cl)cc(C)c1NC(=O)c1cc(C(F)(F)F)nn1-c1ncccc1Cl [Compound 500] | ≤ 10% | ≤ 10 ppm | ≤ 10% | ≤ 10% | – | – | –
CC(C)NC(=O)c1cc(Cl)cc(Cl)c1NC(=O)c1cc(C(F)(F)F)nn1-c1ncccc1Cl [Compound 513] | ≤ 10% | ≤ 10 ppm | ≤ 10% | ≤ 10% | – | – | –
CNC(=O)c1cc(Cl)cc(Cl)c1NC(=O)c1cc(C(F)(F)F)nn1-c1ncccc1Cl [Compound 515] | ≤ 10% | ≤ 10 ppm | ≤ 10% | ≤ 10% | – | – | –
CCNC(=O)c1cc(Cl)cc(Cl)c1NC(=O)c1cc(C(F)(F)F)nn1-c1ncccc1Cl [Compound 516] | ≤ 10% | ≤ 10 ppm | ≤ 10% | ≤ 10% | – | – | –
CCNC(=O)c1cc(Br)cc(C)c1NC(=O)c1cc(C(F)(F)F)nn1-c1ncccc1Cl [Compound 518] | ≤ 10% | ≤ 10 ppm | ≤ 10% | ≤ 10% | – | – | –
Cc1cc(Br)cc(C(=O)NC(C)C)c1NC(=O)c1cc(Br)nn1-c1ncccc1Cl [Compound 520] | ≤ 10% | ≤ 10 ppm | ≤ 10% | ≤ 10% | ≤ 10% | – | –
Cc1cc(Cl)cc(C(=O)NC(C)C)c1NC(=O)c1cc(Br)nn1-c1ncccc1Cl [Compound 530] | ≤ 10% | – | ≤ 10% | ≤ 10% | – | greater than 70% | ≤ 10%
CNC(=O)c1cc(Cl)cc(C)c1NC(=O)c1cc(Br)nn1-c1ncccc1Cl [Compound 531] | ≤ 10% | ≤ 10 ppm | ≤ 10% | ≤ 10% | – | – | ≤ 10%
CC(C)NC(=O)c1cc(Br)cc(Br)c1NC(=O)c1cc(Br)nn1-c1ncccc1Cl [Compound 533] | ≤ 10% | ≤ 10 ppm | ≤ 10% | ≤ 10% | – | – | –
CC(C)(C)NC(=O)c1cc(Br)cc(Br)c1NC(=O)c1cc(Br)nn1-c1ncccc1Cl [Compound 535] | ≤ 10% | ≤ 10 ppm | ≤ 10% | ≤ 10% | – | – | –
CNC(=O)c1cc(Br)cc(C)c1NC(=O)c1cc(Br)nn1-c1ncccc1Cl [Compound 538] | ≤ 10% | ≤ 10 ppm | ≤ 10% | ≤ 10% | – | – | –
CNC(=O)c1cc(Br)cc(C)c1NC(=O)c1cc(C(F)(F)F)nn1-c1ncccc1Cl [Compound 542] | ≤ 10% | ≤ 10 ppm | ≤ 10% | ≤ 10% | – | – | –
Cc1cc(Cl)cc(C(=O)NC(C)C)c1NC(=O)c1cc(Cl)nn1-c1ncccc1Cl [Compound 543] | ≤ 10% | ≤ 10 ppm | ≤ 10% | ≤ 10% | – | greater than 70% | –
CNC(=O)c1cc(Cl)cc(C)c1NC(=O)c1cc(Cl)nn1-c1ncccc1Cl [Compound 544] | ≤ 10% | ≤ 10 ppm | ≤ 10% | ≤ 10% | – | – | –
CNC(=O)c1cc(Cl)cc(Br)c1NC(=O)c1cc(C(F)(F)F)nn1-c1ncccc1Cl [Compound 753] | ≤ 10% | – | ≤ 10% | ≤ 10% | – | – | –
CC(C)NC(=O)c1cc(Cl)cc(Br)c1NC(=O)c1cc(C(F)(F)F)nn1-c1ncccc1Cl [Compound 754] | ≤ 10% | – | ≤ 10% | ≤ 10% | – | – | –
Cc1cc(Cl)cc(C(=O)N(C)C)c1NC(=O)c1cc(Cl)nn1-c1ncccc1Cl [Compound 755] | ≤ 10% | – | ≤ 10% | ≤ 10% | – | – | –
